Binding data for two substances are collected here from PMC4756708.

In one experiment the target is T1, TRPM1-NT-Nluc (mouse) (UniProt Q2TV84).
T1 sequence: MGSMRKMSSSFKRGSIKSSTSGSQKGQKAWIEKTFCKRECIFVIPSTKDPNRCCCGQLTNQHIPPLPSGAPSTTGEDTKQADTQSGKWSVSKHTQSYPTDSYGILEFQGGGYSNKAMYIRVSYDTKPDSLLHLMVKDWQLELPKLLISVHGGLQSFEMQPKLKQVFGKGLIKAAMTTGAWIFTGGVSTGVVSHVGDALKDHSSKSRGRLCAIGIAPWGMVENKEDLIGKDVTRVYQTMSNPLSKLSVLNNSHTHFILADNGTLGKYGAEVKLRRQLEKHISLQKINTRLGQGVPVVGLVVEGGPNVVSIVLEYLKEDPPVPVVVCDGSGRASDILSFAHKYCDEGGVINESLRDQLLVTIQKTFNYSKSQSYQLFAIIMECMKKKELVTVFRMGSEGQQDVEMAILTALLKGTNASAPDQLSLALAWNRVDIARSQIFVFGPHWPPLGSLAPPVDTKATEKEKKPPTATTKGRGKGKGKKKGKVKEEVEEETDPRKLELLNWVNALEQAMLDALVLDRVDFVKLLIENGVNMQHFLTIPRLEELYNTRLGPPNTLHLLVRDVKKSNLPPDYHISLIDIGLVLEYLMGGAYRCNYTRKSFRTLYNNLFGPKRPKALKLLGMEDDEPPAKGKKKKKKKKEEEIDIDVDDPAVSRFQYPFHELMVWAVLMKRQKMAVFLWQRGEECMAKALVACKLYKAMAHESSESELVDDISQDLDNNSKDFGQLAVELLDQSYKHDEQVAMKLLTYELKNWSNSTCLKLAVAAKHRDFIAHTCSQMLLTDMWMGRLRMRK
Nature of the experiment: FRET or BRET; HEK293T/17 cells, fixed amount of Nanoluc-fused TRPM1 fragment (donor), increasing Venus-fused G-protein subunit (acceptor); titration of acceptor/donor ratio; read 24 h after transfection in PBS with 0.5 mM MgCl2 and 0.1% glucose, room temperature. In general terms: In BRET a luciferase serves as donor, and the signal depends on an acceptor being close.

In another experiment the target is T2, TRPM1-CT-Nluc (mouse) (UniProt Q2TV84).
T2 sequence: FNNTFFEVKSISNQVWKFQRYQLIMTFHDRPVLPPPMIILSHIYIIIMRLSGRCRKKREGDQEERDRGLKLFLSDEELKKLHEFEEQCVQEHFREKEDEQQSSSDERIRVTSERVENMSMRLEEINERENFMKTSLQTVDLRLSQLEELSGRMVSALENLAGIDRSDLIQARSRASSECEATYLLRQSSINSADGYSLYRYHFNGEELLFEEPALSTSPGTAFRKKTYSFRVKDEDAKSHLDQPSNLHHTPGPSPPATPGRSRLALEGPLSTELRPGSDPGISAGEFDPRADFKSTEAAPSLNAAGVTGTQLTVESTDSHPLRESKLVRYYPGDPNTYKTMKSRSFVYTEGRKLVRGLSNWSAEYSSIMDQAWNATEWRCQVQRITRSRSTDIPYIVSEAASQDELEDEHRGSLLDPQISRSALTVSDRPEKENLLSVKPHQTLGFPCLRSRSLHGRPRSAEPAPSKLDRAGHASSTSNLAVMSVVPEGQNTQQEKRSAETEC
Described as above.

The target of experiment [1] is mouse TRPM1 full-length (mouse) (UniProt Q2TV84). Nature of the experiment: co-IP; HEK293T co-transfected with TRPM1, Gαo, Gβ3 and Gγ13; lysed in PBS IP buffer (150 mM NaCl, 1% Triton X-100, 5 mM MgCl2) with GDP, GDP/AlF4 or GTPγS; TRPM1 precipitated with sheep anti-TRPM1 and protein G, room temperature, 1 hour; Western blot.

Results are given in words; binding and its absence hold for the method and conditions named. In cells and extracts the contact can be indirect. Some entries that bind do so weakly or less than the wild type. For part of these data: Sequences can lack the tags named with a protein.

For “Venus-Gαo1 (from UniProt P09471-1 1-354)”, the binding result with TRPM1-NT-Nluc (mouse) and with TRPM1-CT-Nluc (mouse) was “binds” each time. As to rat Gαo1 (from UniProt P59215-1 1-354), in experiment [1], the binding result is reported as “binds”.
